These are yes or no findings as the source states them, for the method shown. Some results given as binding are weak or reduced against the parent protein; the word gives no strength. For some of these results: Tags and fused reporters may be left off the sequences shown.
T1: MICA on the surface of cells (human) (UniProt Q29983)
T1 sequence (looked up): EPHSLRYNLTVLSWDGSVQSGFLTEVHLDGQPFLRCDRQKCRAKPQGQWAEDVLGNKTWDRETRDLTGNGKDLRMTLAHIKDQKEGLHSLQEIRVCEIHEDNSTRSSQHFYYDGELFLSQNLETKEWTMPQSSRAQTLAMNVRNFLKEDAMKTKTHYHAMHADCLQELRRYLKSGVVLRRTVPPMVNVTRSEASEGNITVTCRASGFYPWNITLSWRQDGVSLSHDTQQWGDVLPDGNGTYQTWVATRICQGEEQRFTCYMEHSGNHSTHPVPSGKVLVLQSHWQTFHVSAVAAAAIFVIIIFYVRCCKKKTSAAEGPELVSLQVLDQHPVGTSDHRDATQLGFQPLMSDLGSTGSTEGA

T2: MICB (human) (UniProt Q29980)
T2 sequence (looked up): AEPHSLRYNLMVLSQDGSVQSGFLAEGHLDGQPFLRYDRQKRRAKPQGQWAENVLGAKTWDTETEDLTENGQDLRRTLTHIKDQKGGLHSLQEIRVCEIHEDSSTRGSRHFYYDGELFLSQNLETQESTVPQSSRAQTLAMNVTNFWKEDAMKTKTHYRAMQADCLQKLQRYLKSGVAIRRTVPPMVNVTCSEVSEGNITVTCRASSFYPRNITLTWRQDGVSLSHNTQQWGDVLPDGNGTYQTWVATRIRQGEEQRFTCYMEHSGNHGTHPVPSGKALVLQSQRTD

T3: MICA antigen (UniGene Hs.130838) with C-terminal BirA tag (human) (UniProt Q29983)
T3 sequence: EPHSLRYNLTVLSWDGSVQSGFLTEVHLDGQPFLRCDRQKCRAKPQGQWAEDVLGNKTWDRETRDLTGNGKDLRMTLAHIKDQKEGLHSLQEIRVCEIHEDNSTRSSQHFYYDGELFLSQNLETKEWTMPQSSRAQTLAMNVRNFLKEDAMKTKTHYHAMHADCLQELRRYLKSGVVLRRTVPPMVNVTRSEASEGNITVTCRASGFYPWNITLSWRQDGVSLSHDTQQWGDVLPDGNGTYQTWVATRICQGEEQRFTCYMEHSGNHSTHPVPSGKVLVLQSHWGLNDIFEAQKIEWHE


Tests used:
[1] = target: T1, MICA on the surface of cells (human); assay: flow cytometry (figure legend)
[2] = target: T1, MICA on the surface of cells (human); assay: flow cytometry, antibody 10 ug/ml, B16 and B16-MICA cells (figure legend)
[3] = target: T1, MICA on the surface of cells (human); assay: flow cytometry on RPMI 8226, Xg-1, OVCAR3, U937, K028, 1792, 827, MCF7 cells, directly conjugated antibody 10 µg/ml
MICB (human) = target: T2, MICB (human); assay: cytometric bead assay, biotinylated antigen on streptavidin beads, FITC anti-human IgG
[4] = target: T1, MICA on the surface of cells (human); assay: flow cytometry, autologous CD33+ CD34+ tumor cells from bone marrow, antibody 10 µg/ml
[5] = target: T3, MICA antigen (UniGene Hs.130838) with C-terminal BirA tag (human); assay: bead assays: Luminex MICA beads and MICA-coated streptavidin beads, flow cytometry

| Binder | binding [1] | binding [3] | binding (MICB (human)) | other results |
| --- | --- | --- | --- | --- |
| CM33322 Ab29 (antibody, V domains shown) VH: EVQLLESGGGLVQPGGSLRLSCAASGFTFSSYGLTWIRQAPGKGLEWVSSISGSGNNTYYADSVKGRFTISRDKVKKTLYLQMDSLTVGDTAVYYCLGVGQGHGIPVIVSS VL: DVVMTQSPLSLPVTLGQPASISCRSSQSLVHSDGNTYLNWFHQRPGQSPRRLIYKVSKRDSGVPDRFSGSGSGSDFTLKISRVEAEDVGIYYCMQGTHWPTFGQGTKVEIKRTVAA | binds | binds | – | binding [2]: binds |
| CM24002 Ab4 (antibody, V domains shown) VH: QVQLQESGPGLVKPSGTLSLTCAVSGASITNGAWWSWVRQPPGKGLEWIGEIYLNGNTNSNPSLKSRVIISVDKSKNHFSLTLNSVTAADTAVYYCAKNAAYNLEFWGQGALVTVSS VL: EIVLTQSPGTLSLSPGERATLSCRASQTVSSPYVAWYQQKRGQAPRLLIYGASTRATGIPDRFSGSGSGTDFTLTISRLEPEDFAVYYCQQYDRSYYYTFGQGTKLEIK | – | – | binds | – |
| CM33322 Ab11 (antibody, V domains shown) VH: QVQLQESGPGLVKPSENLSLTCTVSDASMSDYHWSWIRQAAGKGLEWIGRMYSTGSPYYKPSLKGRVTMSIDTSKNQFSLKLASVTAADTAIYYCASGQHIGGWVPPDFWGQGTLVTVSS VL: DIVMTQTPLSSPVTLGQPASISCRSSEGLVYSDGDTYLSWFHQRPGQPPRLLIYKISNRFSGVPDRFSGSGAGTDFTLKISRVEAEDVGVYYCMQATHFPWTFGQGTKVEVKR | – | – | binds | – |
| CM24002 Ab2 (antibody, V domains shown) VH: QVQLQESGPGLVEPSGTLSLTCTVSGGSISRSNWWSWVRQPPGEGLEWIGEIHHIGRSSYNPSLKSRVTMSVDKSQNQFSLRLTSVTAADTAVYYCAKNGYYAMDVWGQGTTVTVSS VL: EIVLTQSPGTLSLSPGERATLSCRASQSVSSDFLAWYQQKPGQAPRLLIYATSFRATGISDRFSGSGSGTDFSLTINRLEPEDFAVYYCQHYRSSPPWYTFAQGTKLDMRRTVAAPSV | binds | binds | binds | binding [4]: binds |
| MICA-Ab20 (antibody, V domains shown) VH: QVQLQQWGAGLLKPSETLALTCAVSGGSFTDHYWSWIRQAPGKGLEWIGEINHSGVTNYNPSLKSRLTISVDTSKSQFSLRLTSVTAADTALYYCAKTGLYYDDVWGTFRPRGGFDSWGQGTLVTVSS VL: DIVMTQSPDSLAVSLGERATINCKSSQSILYSSDNKNYLAWYQHKPGQPPKLLFYWASIRESGVPDRFSGGGSGTDFTLTISSLQAEDVAVYYCQQYYSPPCSFGQGTKLEIQ | – | – | – | binding [5]: binds |
